This is one part of the list. The signal is at background level for most entries.
What was measured:
Experiment in all cases: fluorescence intensity of antibody binding to polysaccharide-coupled beads; higher = stronger binding
[1] = target: pneumococcal polysaccharide Pn8
[2] = target: pneumococcal polysaccharide Pn9A
[3] = target: pneumococcal polysaccharide Pn9L
[4] = target: pneumococcal polysaccharide Pn9N
[5] = target: pneumococcal polysaccharide Pn9V
[6] = target: pneumococcal polysaccharide C-Poly-1
[7] = target: pneumococcal polysaccharide C-Poly-2
[8] = target: pneumococcal polysaccharide Pn1
[9] = target: pneumococcal polysaccharide Pn10A
[10] = target: pneumococcal polysaccharide Pn10B
[11] = target: pneumococcal polysaccharide Pn10C
[12] = target: pneumococcal polysaccharide Pn10F
[13] = target: pneumococcal polysaccharide Pn11A
[14] = antibody concentration 0.534724 ng/mL
[15] = antibody concentration 2.8593 ng/mL
[16] = antibody concentration 15.2894 ng/mL
[17] = antibody concentration 81.7561 ng/mL
[18] = antibody concentration 437.17 ng/mL
[19] = antibody concentration 2337.65 ng/mL
[20] = antibody concentration 12500 ng/mL
[21] = antibody concentration 0.1 ng/mL

B1: 4-173.3 (protein)
chain 1: QLQLQESGPGLVKPSETLSLTCAVSGGSINNNYWSWIRQPPGKGLEWIGRIFGSGGSTDYNPSLKSRVTISTDTSKTQFSLNLNSVTAADTAVYFCARGSYQVDYWGQGVLVTVSS
chain 2: QAALTQPPSMSGSPGQSVTISCTGTSSDIGGWNRVSWYQQYPGKAPKLMIYEVSKRPSGVSDRFSGSKSGNTASLTISGLQAEDEADYYCSSYVHINNALFGGGTRLTVL
[1]; [14]
  fluorescence intensity: 20 MFI
[1]; [15]
  fluorescence intensity: 20 MFI
[1]; [16]
  fluorescence intensity: 20.5 MFI
[1]; [17]
  fluorescence intensity: 22.2 MFI
[1]; [18]
  fluorescence intensity: 23 MFI
[1]; [19]
  fluorescence intensity: 26.5 MFI
[1]; [20]
  fluorescence intensity: 42.8 MFI
[2]; [21]
  fluorescence intensity: 20.5 MFI
[2]; [14]
  fluorescence intensity: 20 MFI
[2]; [15]
  fluorescence intensity: 17.5 MFI
[2]; [16]
  fluorescence intensity: 19.5 MFI
[2]; [17]
  fluorescence intensity: 18.2 MFI
[2]; [18]
  fluorescence intensity: 20 MFI
[2]; [19]
  fluorescence intensity: 21 MFI
[2]; [20]
  fluorescence intensity: 35.5 MFI
[3]; [21]
  fluorescence intensity: 16.2 MFI
[3]; [14]
  fluorescence intensity: 17 MFI
[3]; [15]
  fluorescence intensity: 16.5 MFI
[3]; [16]
  fluorescence intensity: 16 MFI
[3]; [17]
  fluorescence intensity: 15.5 MFI
[3]; [18]
  fluorescence intensity: 16.5 MFI
[3]; [19]
  fluorescence intensity: 18 MFI
[3]; [20]
  fluorescence intensity: 28.5 MFI
[4]; [21]
  fluorescence intensity: 17.5 MFI
[4]; [14]
  fluorescence intensity: 16 MFI
[4]; [15]
  fluorescence intensity: 14 MFI
[4]; [16]
  fluorescence intensity: 14.5 MFI
[4]; [17]
  fluorescence intensity: 15 MFI
[4]; [18]
  fluorescence intensity: 14.5 MFI
[4]; [19]
  fluorescence intensity: 16 MFI
[4]; [20]
  fluorescence intensity: 31 MFI
[5]; [21]
  fluorescence intensity: 16.5 MFI
[5]; [14]
  fluorescence intensity: 14 MFI
[5]; [15]
  fluorescence intensity: 13.5 MFI
[5]; [16]
  fluorescence intensity: 16 MFI
[5]; [17]
  fluorescence intensity: 12.5 MFI
[5]; [18]
  fluorescence intensity: 15.5 MFI
[5]; [19]
  fluorescence intensity: 16.5 MFI
[5]; [20]
  fluorescence intensity: 24 MFI

B2: 3S41.4 (protein)
chain 1: EVQLVESGGGLVQPGGSLRLSCATSGFTFSNYWMYWFRQAPGKGLEWVSTISGSSTNTYYSGSVKGRFTISRDNAKNTLYLQMNSLRAEDTAVYYCARRGTDSSHWYFDLWGPGTPITVSS
chain 2: EIVMTQSPATLSLSPGERATLSCRASQSVSSNLAWYQQKPGQGPRLLIYDASNRATGIPDRFGGSGSGTDFTLTISSLEPEDVGVYYCQQESNWPLTFGGGTKVEIK
[6]; [21]
  fluorescence intensity: 24 MFI
[6]; [14]
  fluorescence intensity: 25 MFI
[6]; [15]
  fluorescence intensity: 24.2 MFI
[6]; [16]
  fluorescence intensity: 27 MFI
[6]; [17]
  fluorescence intensity: 24.5 MFI
[6]; [18]
  fluorescence intensity: 29 MFI
[6]; [19]
  fluorescence intensity: 37.8 MFI
[6]; [20]
  fluorescence intensity: 131 MFI
[7]; [21]
  fluorescence intensity: 19.5 MFI
[7]; [14]
  fluorescence intensity: 19.5 MFI
[7]; [15]
  fluorescence intensity: 20 MFI
[7]; [16]
  fluorescence intensity: 20 MFI
[7]; [17]
  fluorescence intensity: 20.8 MFI
[7]; [18]
  fluorescence intensity: 22.5 MFI
[7]; [19]
  fluorescence intensity: 31.2 MFI
[7]; [20]
  fluorescence intensity: 106 MFI
[8]; [21]
  fluorescence intensity: 14 MFI
[8]; [14]
  fluorescence intensity: 12.5 MFI
[8]; [15]
  fluorescence intensity: 12.5 MFI
[8]; [16]
  fluorescence intensity: 12.5 MFI
[8]; [17]
  fluorescence intensity: 13.5 MFI
[8]; [18]
  fluorescence intensity: 13.5 MFI
[8]; [19]
  fluorescence intensity: 17 MFI
[8]; [20]
  fluorescence intensity: 40 MFI
[9]; [21]
  fluorescence intensity: 25 MFI
[9]; [14]
  fluorescence intensity: 25.5 MFI
[9]; [15]
  fluorescence intensity: 25 MFI
[9]; [16]
  fluorescence intensity: 26 MFI
[9]; [17]
  fluorescence intensity: 26 MFI
[9]; [18]
  fluorescence intensity: 24.5 MFI
[9]; [19]
  fluorescence intensity: 26 MFI
[9]; [20]
  fluorescence intensity: 39.5 MFI
[10]; [21]
  fluorescence intensity: 23 MFI
[10]; [14]
  fluorescence intensity: 25 MFI
[10]; [15]
  fluorescence intensity: 25.8 MFI
[10]; [16]
  fluorescence intensity: 23.5 MFI
[10]; [17]
  fluorescence intensity: 21.5 MFI
[10]; [18]
  fluorescence intensity: 24 MFI
[10]; [19]
  fluorescence intensity: 25.8 MFI
[10]; [20]
  fluorescence intensity: 33.5 MFI
[11]; [21]
  fluorescence intensity: 14.5 MFI
[11]; [14]
  fluorescence intensity: 16.5 MFI
[11]; [15]
  fluorescence intensity: 16 MFI
[11]; [16]
  fluorescence intensity: 15.2 MFI
[11]; [17]
  fluorescence intensity: 17 MFI
[11]; [18]
  fluorescence intensity: 16.8 MFI
[11]; [19]
  fluorescence intensity: 18.5 MFI
[11]; [20]
  fluorescence intensity: 27.5 MFI
[12]; [21]
  fluorescence intensity: 21.5 MFI
[12]; [14]
  fluorescence intensity: 18.5 MFI
[12]; [15]
  fluorescence intensity: 18.8 MFI
[12]; [16]
  fluorescence intensity: 20.2 MFI
[12]; [17]
  fluorescence intensity: 19 MFI
[12]; [18]
  fluorescence intensity: 19 MFI
[12]; [19]
  fluorescence intensity: 21.2 MFI
[12]; [20]
  fluorescence intensity: 30.5 MFI
[13]; [21]
  fluorescence intensity: 27 MFI
[13]; [14]
  fluorescence intensity: 27.5 MFI
[13]; [15]
  fluorescence intensity: 29.5 MFI
[13]; [16]
  fluorescence intensity: 29 MFI

— the supplement of paper PMC11438910
